Some of the results follow.
system: T1, CTL2-GFP (C. trachomatis L2/434/Bu, GFP-expressing); design: species or system HeLa; Intracellular C. trachomatis growth in HeLa cells, bulk GFP fluorescence relative to DMSO; conditions: bulk GFP, single well; 28.5 h, 10 µM; inhibitor
T1 construct: L2/434/Bu, GFP-expressing

SMILES	% of control remaining
CCOC(=O)Nc1ccc2c(c1)N(C(=O)CN(C)C)c1ccccc1S2 [CBK261290C]	83.0575%
Cc1c(S(=O)(=O)Nc2ccc(C(=O)c3ccccc3)cc2)cnn1-c1ccccc1 [CBK051034]	174.562%
O=C(C[C@@H]1CCNC[C@@H]1Cc1cc(-c2ccccc2)on1)Nc1cccc(O)c1 [CBK289149]	136.427%
COc1ccc2oc(C(=O)NCCN3CCOCC3)c(C)c2c1OC [CBK269913C]	153.311%
CC(=O)N(C)c1nc(-c2cccc(N(C)C)c2)ccc1C(=O)Nc1ccc(C(F)(F)F)cc1 [CBK076623]	104.762%
CCc1nc2ccc(C(=O)NC3CCN(C)CC3)cn2c1N(C)C=O [CBK146594]	96.173%
COc1ccc(-c2nc(-c3cccs3)cnc2N)cc1OC [CBK063981]	199.725%
CCOC(=O)c1c(NC(=O)CSc2nnc3ccccn23)sc2c1CCCCC2 [CBK265685]	100%
CC(NCC(=O)N1c2ccccc2NC(=O)CC1C)c1ccc(-c2ccccc2)cc1 (stereo not drawn) [CBK295155]	169.888%
OCCN1CCN(c2ncnc3scc(-c4ccccc4)c23)CC1 [CBK287582]	163.045%
NC(=O)NC(CC(=O)N1CCN(c2nccs2)CC1)c1cccc(Br)c1 (stereo not drawn) [CBK304548]	123.708%
c1cc(-c2nccnc2OC2CCCCC2)ccn1 [CBK106727]	100%
CCC(=O)NC(c1ccc(OC)c(OC)c1)c1ccc2cccnc2c1O (stereo not drawn) [CBK293926]	81.1441%
CN(Cc1ccccc1)c1nccnc1-c1ccc(F)c(Cl)c1 [CBK037997]	180.905%
CCc1nnc(NS(=O)(=O)c2ccc(NCc3cc(Cl)ccc3O)cc2)s1 [CBK200051]	77.0639%
O=C(c1ccccc1F)N1CCCC(c2n[nH]c3ncccc23)C1 (stereo not drawn) [CBK282672]	123.04%
CCc1cc(Br)ccc1S(=O)(=O)NCCC#N [CBK044760]	97.8417%
Cc1cc(C)c2cc(CNC3CC3)c3nn(C)c(=O)n3c2c1 [CBK283186]	112.647%
O=C(CCc1ccco1)N1CCCCC1c1nc2ccccc2[nH]1 (stereo not drawn) [CBK283711]	121.74%
CCC(CC)C(=O)N(C)c1c(C)nc2ccc(C(=O)N3CCN(S(=O)(=O)CC)CC3)cn12 [CBK146524]	137.042%
Cc1ccc2[nH]c(Nc3nc(C)cc(C)n3)nc2c1 [CBK263634]	118.932%
O=S(=O)(Nc1nnn[nH]1)c1ccc(N2CCOCC2)nc1 [CBK062385]	101.701%
Cc1ncsc1CCOc1cc(NC(C)C)ncn1 [CBK115884]	100%
CC[C@H]1C[N@@]2CC[C@H]1C[C@@H]2CNS(=O)(=O)c1cccc(C#N)c1 [CBK288746]	145.768%
O=C(O)c1ccccc1C1SCCCS1 [CBK016303]	147.936%
CC1(C)CC(NCC(O)COc2cc(C(C)(C)C)c(O)c(C(C)(C)C)c2)CC(C)(C)N1 (stereo not drawn) [CBK264564]	96.0619%

Rewritten as labelled records: entries from further up.
COc1ccc2oc(C(=O)NCCN3CCOCC3)c(C)c2c1OC [CBK269913C]
  % of control remaining: 153.311%
CC(=O)N(C)c1nc(-c2cccc(N(C)C)c2)ccc1C(=O)Nc1ccc(C(F)(F)F)cc1 [CBK076623]
  % of control remaining: 104.762%
CCc1nc2ccc(C(=O)NC3CCN(C)CC3)cn2c1N(C)C=O [CBK146594]
  % of control remaining: 96.173%
COc1ccc(-c2nc(-c3cccs3)cnc2N)cc1OC [CBK063981]
  % of control remaining: 199.725%

(listing goes on)

SMILES	% of control remaining
O=C(O)c1cccc(CSc2nnc(Cc3ccccc3)o2)c1 [CBK268060]	136.225%
O=C(Cc1ccccc1)NN1C(=O)/C(=C/c2ccccc2C(=O)O)SC1=S [CBK262975]	113.386%
Cc1c(C(=O)NCCCN2CCOCC2)oc2c1C(=O)CCC2 [CBK270207]	122.91%
CN1CCC[C@H]1c1nc(-c2ccc(-n3ccnc3)nc2)no1 [CBK288893]	128.757%
COc1ccc(N2CCN(c3nc(NCCO)nc(OC)n3)CC2)cc1 [CBK265478]	100%
CCCC(=O)Nc1ccc(-c2csc(N3CCCC3=O)n2)cc1 [CBK306088]	121.01%
COc1ccc(CNC(=O)C2CCCN(S(C)(=O)=O)C2)cc1OC (stereo not drawn) [CBK299830]	128.912%
COc1ccc(Oc2nccnc2N2CCN(Cc3ccc4c(c3)OCO4)CC2)cc1OC [CBK083048T]	107.571%
CN1CCCC(C(=O)Nc2cnc(-c3cccc(C(F)(F)F)c3)c(-c3cccnc3)n2)C1 (stereo not drawn) [CBK036787]	180.566%
O=c1[nH]nc2n1-c1ccccc1OC2 [CBK010583]	105.723%
O=C(N[C@H]1C[C@H]2C(=O)Nc3ccc(-c4ccsc4)cc3C(=O)N2C1)c1ccccc1 [CBK289361]	103.779%
O=C(Cn1ccc(=O)[nH]c1=O)Nc1ccc(OCC(F)(F)F)cc1 [CBK305879]	59.0437%
Nc1ncc(-c2ccc(C(=O)N3CCOCC3)cc2)cc1C(=O)NCc1c(F)cccc1F [CBK158569]	99.8591%
Nc1nc(OCCn2cccc2)cnc1-c1ccsc1 [CBK145162]	114.597%
CN(Cc1ccccc1)c1nccnc1-c1ccccc1F [CBK037410]	100.146%
O=C(c1ccccc1)c1ccc(OCC(O)CN2CCN(c3ccccn3)CC2)cc1 (stereo not drawn) [CBK266513]	131.839%
Cc1ccc(OCC(=O)Nc2cc(Cl)ccc2O)cc1C [CBK265968]	115.2%
O=C(CCn1c2ccccc2c2ccccc21)NNC(=S)Nc1ccccc1 [CBK262106]	95.379%
O=C1NCCCC12CCN(Cc1ccc3ncccc3c1)CC2 [CBK284825]	105.365%
C=CCNC(=O)N[C@H]1[C@H](O)[C@@H](Oc2ccccc2)[C@@H]2OC[C@H]1O2 [CBK288812]	113.28%
CCn1ccc(C(=O)NC(c2cncc(OC)c2)[C@H]2C[C@@H](O)C2)cc1=O (stereo partly drawn) [CBK307696]	120.174%
N#Cc1c(C(F)(F)F)cc(-c2ccccc2)nc1SCCC(=O)Nc1ccccc1O [CBK268191]	93.1447%
CC(Cn1cncn1)C(=O)N1CCC(CCc2ccccc2F)CC1 (stereo not drawn) [CBK281529]	120.351%
Cc1ccccc1Nc1nc(N)nc(CN2CC(C)OC(C)C2)n1 (stereo not drawn) [CBK305856]	107.154%
CN(C)[C@H]1CCCC[C@@H]1n1c(-c2ccc(Cl)c(Cl)c2)n[nH]c1=O [CBK010566]	108.345%

— publication PMC12040169 (PLOS Biology, 2025)
